# Data as given in PubChem BioAssay AID1508600 (Functional Genomics Laboratory (NCATS/FGL), 2020).
# The campaign covered roughly 53,000 sequences. About 3,700 (7%) were called active.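 Rule for the calls: active = gene knockdowns whose robust z-score for IL-1 alpha signal is at least 2 or at most -2, so actives lie on both sides; inactive = the rest.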 The list shows a part of the results.
# Experiment: Components of the Cytosolic LPS Sensing Pathway: Gene Identification via Genome-wide siRNA Screen;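 note: robust z of the log signal after scaling to non-targeting control siRNA wells of the plate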
# Details: RAW264.7 macrophages, IL-1a HTRF, actives lie on both sides, screened at 100 nM (by protocol), cells primed 5 h with Pam3CSK4 first
# In short: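 RAW264.7; siRNA 100 nM final, RNAiMAX, 48h 37 degrees C; Pam3CSK4 5 h; LipidA + TransIT-TKO 24 h; IL-1a HTRF; CellTiter-Glo viability; robust z vs negative-control median.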
row,Sequence,z-score
1,GGCAGAAUGGGCUUAUGUCTT against Trabd,active: -2.54
2,GCGGAGAGAUCAAAGCGAUTT against Iltifb,active: -2.05
3,GGAGAAGAAGUCCAAAGGATT against Tnfaip2,inactive: -0.392
4,CCAACGGAUGCUCAAACAATT against Aspscr1,inactive: -1.62
5,GGUUAGCUGAAAGUUGAGGTT against Fbxo41,inactive: 1.28
6,GCUACGAAGAAGCAUGCCUTT against Slain1,inactive: -0.132
7,GCCGUUAACCUCAAGUUUUTT against Lrrn3,inactive: -0.181
8,CCUCCCUAUUCUAUGGUAGTT against Prss34,inactive: 0.0934
9,CCUGUUUCUGACCUAAUACTT against Syn1,inactive: -0.088
10,GCCGAGCCAUAUGACACUATT against Tlk2,inactive: -0.566
11,GGCCAUGAAUCUUGUUGGGTT against Scg5,inactive: -0.684
12,CCGUUAGGUUUUUAUCCAATT against Ube2b,inactive: 0.193
13,GGAUUUUGAACCCAGUUAUTT against St3gal5,inactive: -0.861
14,CCAGAUUGUCACUUGCUACTT against Skint3,inactive: 1.25
15,GGGUUAUCCAAGUCUUUUCTT against Olfr617,inactive: 1.48
16,GGAUGGCUCCAUUGUCAUATT against Mpz,inactive: 0.37
17,GGAACUUAAUCACCCUAAUTT against Cdk2,inactive: -1.46
18,CCACUUUCAGAAACAUUACTT against A2ml1,inactive: -1.01
19,GCUAUGCAGAGGAGUAUGCTT against Duoxa1,active: 3.03
20,GGUUAAGCAGAAAUUAAGATT against Supt20,inactive: -0.551
21,GGCUUUUUCCUCUAUCUGATT against Thoc1,inactive: -0.291
22,GCCACCCACCUAAAAUCAATT against Rcsd1,inactive: -0.216

row,Sequence,z-score
1,CCCUUUGCAUUCCUACUGATT against Gm9991,inactive: -0.179
2,GGCAUGAUUAUUGUGUUUGTT against Abcb11,inactive: 0.41
3,GGUGCAGCAUACCUGAAGATT against Parm1,inactive: 0.803
4,GGUCUUAAACAGUGUGACATT against Gbf1,inactive: -1.15
5,GCUGAAGGAGAAAUUCACCTT against Ptgds,inactive: 0.923
6,GGGUCAUGUACUUCUUUAUTT against Mip,inactive: 0.461
7,GGACAAAGAGGCAAUGGGATT against Dnajb9,inactive: 1.08
8,CGUCCAGAGCUACGUAUGCTT against Olfr1490,inactive: 0.849
9,GGCCAAAGUGGUGUGUUUCTT against Mta1,active: 2.46
10,GGGCAGUCAACUUAGUGAGTT against Olfr1208,inactive: -0.631
11,GCAAGUUACCAGGAUGCAATT against Pglyrp3,inactive: -0.379
12,CGGUGAUCGUCAUUUUAUUTT against Ap4m1,active: 2.47
13,GGAGCGCAGACAACAGAUUTT against Zkscan5,inactive: 0.634
14,GGAAAGCCAUCGAAUUUCCTT against Il17re,inactive: 0.0362
15,GGAAAGAAAAAUGAAGCUUTT against Tmem167b,inactive: -0.548
16,GCUCGAUUCAGUCAUUGAGTT against Ak2,inactive: -0.975
17,GCUGUAAAGUAAGUGUAGUTT against Rwdd4a,inactive: 0.59
18,GGAGACUAAGGAGGUUUAUTT against Ruvbl1,inactive: 0.494
19,GGUUCUCCCAGACCAAAGATT against Cables1,inactive: -0.186
20,GCAAGAUCUUGAGUUUUGATT against Wnt3,inactive: 0.171
21,GGAAAACUAGACAGAAAAUTT against Letm2,inactive: 0.0558
22,GGAAAUGUCUUAUGAUAACTT against Col5a1,inactive: 0.194

row,Sequence,z-score
1,GCCGAUGACACUAUCUACCTT against Cryz,inactive: 0.465
2,GCACUAUCCAGGAGCAUUUTT against Ugt3a2,inactive: -0.313
3,GAAAGAAACUGCUGAAUGATT against Vmn1r228,inactive: -1.42
4,GGAGAAACGGGUUUUUCAATT against Nfrkb,inactive: 1.72
5,UAGCCCAGCCUUCUUUUCCTT against Olfr658,inactive: 0.231
6,GCUUGAAUUUCUGUGGAGGTT against Olfr1320,active: -2.44
7,GGAGGCAGAUGCUGGAAUCTT against Defb3,active: 4.19
8,CCAGAACCAGACGCGUAACTT against Cox6b2,inactive: -0.917
9,GGCAGAGGUACAAUCAGAUTT against St8sia2,inactive: -0.517
10,GGGUCCUCAACACUUCAUATT against Gast,inactive: 0.216
11,GGAGACUAUCCUCAUUAUUTT against Smarca4,inactive: 0.36
12,GCUUGCUUCGCCUACAUUGTT against Slc46a3,inactive: -0.501
13,GCACAACAUAUGUUCCGCCTT against Pard3,inactive: -0.382
14,CGGCUCCAGGCAAAUAUGGTT against Ezh1,inactive: -1.64
15,GGACGAUCGGAAUUGGAAATT against Slc8b1,inactive: 0.734
16,GGUAUUUUGCUCAGUCCCGTT against Tfap2b,inactive: 0.106
17,GGUGCGCUUCUAUGUUCCUTT against Ssrp1,active: 2.38
18,GCAGAGUUACAAGCUUUUATT against Diaph3,active: -4.98
19,GCGUGAUUCCAGUUUACAUTT against Mapk6,inactive: -0.376
20,GGGAUUUUGUACAUUUUUGTT against Egln3,inactive: 1.51
21,CCAUAGCUGAUACUGAUGCTT against Apol7c,inactive: -0.0563
22,GCAAAAUUUGGCUUAAAGATT against Bank1,inactive: 0.238

row,Sequence,z-score
1,CCAUCUAUGGUAUGGAGCGTT against Abcg4,inactive: 0.606
2,GGCAAAUAGAGUGUGAACATT against Lgals12,inactive: 0.142
3,GGGCUAAAUUCAUGGGUUCTT against Timp1,inactive: 0.681
4,CCUUCGAUUGAUCUCUAAGTT against Eif4e,inactive: 0.587
5,CCCUCCUCAGUAUUGUACUTT against Dtx2,active: 2.51
6,GGACAUUUAUCCCAUGACATT against Coro2b,inactive: 0.814
7,GGGAAAAUGCGAUUCAUGATT against P2ry14,inactive: -0.774
8,GGUUCUGGAUUUCAUCACGTT against Coasy,inactive: 0.818
9,GCUUUCCUACGUUUGAAAUTT against Coro1c,inactive: 0.0227
10,GCCUAUAUAUGGUCUAUAUTT against Slc26a2,inactive: 0.951
11,GGUACUGAGAGACAUCGAGTT against Tgtp1,inactive: 0.19
12,GGCAUGUACCAUGUUUUUGTT against Wdr13,inactive: -0.607
13,CCACUGGUGGACAAACUUUTT against A2ml1,inactive: 1.3
14,GGAUCUGGAGGACGAUUCATT against 1700020L24Rik,inactive: -0.264
15,GGAGAAAACUUAGAUUACCTT against Ppil4,active: 2.15
16,GGAUUCAAACUGGUUUUCATT against Ptcd3,inactive: 1.8
17,GGUUUCUAUAAAUCUCCCUTT against Eif4b,inactive: 0.895
18,GGAUUACCAGUCUGGAAGUTT against Eef1d,inactive: 1.24
19,CCUUCACUAAGGGUAGCUGTT against Serinc4,inactive: 1.02
20,CCGUUCCCUAAAUGAAUAUTT against Smc6,inactive: 0.894
21,GGGUUUCUGAGAUUACUGCTT against Ovca2,inactive: 0.455
22,GGUGUUCGUCAUAUGGAAUTT against Tex46,active: 3.71

row,Sequence,z-score
1,GGCUUCAAACAUCCGUUCGTT against Foxb2,inactive: 1.2
2,GGGAGCAACAGUGGUUGGATT against Cenpk,inactive: -0.278
3,GGCUGCAUUUAAUGUUUUATT against St6galnac3,inactive: 1.33
4,GGAUGAAGACUAAUACUAATT against Ltbp2,inactive: 0.724
5,GGCGAAUUGUAUUUGAAAGTT against Lactb,inactive: 0.686
6,GGAGAACCUUGUGGACAAGTT against Xpnpep1,inactive: 1.86
7,GCCUCUGAGUUGCAUGAGUTT against Ppp2r5b,inactive: -0.736
8,GGAGCACCUAACAACUGUUTT against Errfi1,inactive: 0.0582
9,CGAGAAAGUAUUGACCGAGTT against Anxa5,inactive: -0.524
10,CACCUUCAUUUUUGAAAUCTT against Krt6a,inactive: 1.28
11,GGAGCAUCAUCUGAGCGAGTT against Idh3b,inactive: -0.66
12,GGACUCAAAACCAUUUACATT against Dram1,inactive: -1.13
13,CCUGAACCGUCGUCAACUUTT against Atp5d,inactive: -0.695
14,GGAAGGAGAAUAUUUGACATT against Sh3tc2,inactive: -0.931
15,GCCUACGAAGUCUUGUCAGTT against Dnajb8,inactive: -0.432
16,GGGUUUUUCAUAAACAAAGTT against Pdcd1lg2,inactive: -1.46
17,GGAAAUGCUUCUAAAGUCATT against Actg2,inactive: 0.748
18,UCCAUACUACUCAUCAAAUTT against Olfr68,active: 3.78
19,GGCUUUUUCAACAUGUGGATT against Olfr853,inactive: -0.0891

# Reprinted at random: 4 entries already listed.
row,Sequence,z-score
15,GCCUACGAAGUCUUGUCAGTT against Dnajb8,inactive: -0.432
7,GCCUCUGAGUUGCAUGAGUTT against Ppp2r5b,inactive: -0.736
14,GGAAGGAGAAUAUUUGACATT against Sh3tc2,inactive: -0.931
16,GGGUUUUUCAUAAACAAAGTT against Pdcd1lg2,inactive: -1.46

# Reformatted bar-delimited: entries from further up.
row | Sequence | z-score
13 | CCUGAACCGUCGUCAACUUTT against Atp5d | inactive: -0.695
14 | GGAAGGAGAAUAUUUGACATT against Sh3tc2 | inactive: -0.931
15 | GCCUACGAAGUCUUGUCAGTT against Dnajb8 | inactive: -0.432
16 | GGGUUUUUCAUAAACAAAGTT against Pdcd1lg2 | inactive: -1.46
